These are yes or no findings as the source states them, for the method shown. For some of these results: Binding seen in cells or lysates may run through a third protein. Some binding calls cover weakened binding; strength is not graded here.
Key:
[1] = molecular target: T1, Human MRE11 core (residues 1-411), bacterially expressed and purified (human) (UniProt P49959); test: GST pulldown of bacterially purified MRE11
T1 sequence (looked up): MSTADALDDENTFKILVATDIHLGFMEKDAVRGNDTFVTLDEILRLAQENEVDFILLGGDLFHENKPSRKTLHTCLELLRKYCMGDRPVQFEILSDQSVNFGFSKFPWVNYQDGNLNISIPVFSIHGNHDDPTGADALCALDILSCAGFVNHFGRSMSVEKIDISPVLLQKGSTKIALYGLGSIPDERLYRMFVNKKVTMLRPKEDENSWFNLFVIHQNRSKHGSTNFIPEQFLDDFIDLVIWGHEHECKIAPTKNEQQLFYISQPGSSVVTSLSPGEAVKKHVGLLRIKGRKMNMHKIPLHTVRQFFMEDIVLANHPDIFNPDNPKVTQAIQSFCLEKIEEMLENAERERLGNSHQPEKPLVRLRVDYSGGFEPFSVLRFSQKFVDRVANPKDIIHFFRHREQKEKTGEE

Amino acid sequences for entries named in this document (tags omitted).
UniProt P27694: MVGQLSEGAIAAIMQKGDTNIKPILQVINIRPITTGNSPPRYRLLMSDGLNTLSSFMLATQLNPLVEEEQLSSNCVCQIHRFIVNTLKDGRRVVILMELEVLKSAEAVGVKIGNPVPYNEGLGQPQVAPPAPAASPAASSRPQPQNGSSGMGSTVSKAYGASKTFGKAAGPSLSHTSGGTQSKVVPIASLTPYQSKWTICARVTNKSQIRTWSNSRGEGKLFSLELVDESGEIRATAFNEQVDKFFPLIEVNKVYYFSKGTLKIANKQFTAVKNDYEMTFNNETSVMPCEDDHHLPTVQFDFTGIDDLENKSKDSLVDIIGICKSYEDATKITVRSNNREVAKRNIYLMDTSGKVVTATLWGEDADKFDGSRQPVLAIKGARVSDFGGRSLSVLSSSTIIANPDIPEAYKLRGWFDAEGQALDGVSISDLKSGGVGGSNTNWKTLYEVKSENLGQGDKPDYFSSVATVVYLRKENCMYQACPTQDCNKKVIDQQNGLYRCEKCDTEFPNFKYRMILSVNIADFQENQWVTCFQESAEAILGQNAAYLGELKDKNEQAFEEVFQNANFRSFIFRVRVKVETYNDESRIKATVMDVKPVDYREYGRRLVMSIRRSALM

[2] = molecular target: T1, Human MRE11 core (residues 1-411), bacterially expressed and purified (human); test: GST pull-down of bacterially expressed, purified human MRE11, western blot [panel C]
[3] = molecular target: RPA70, endogenous, in HEK293T cell extracts (UniProt P27694); test: GST-SH domain pulldown from HEK293T cell extracts, western blot
[4] = molecular target: RPA70, endogenous, in HEK293T cell extracts (UniProt P27694); test: GST pull-down from HEK293T cell extracts, western blot [panel B]
[5] = molecular target: T2, MRE11, endogenous, in extracts of human cell lines (HEK293T, HeLa, U2OS) (UniProt P49959); test: Strep-Tactin precipitation from HEK293T cells, untreated or 5 Gy IR, western blot [panel E]
T2 sequence (looked up): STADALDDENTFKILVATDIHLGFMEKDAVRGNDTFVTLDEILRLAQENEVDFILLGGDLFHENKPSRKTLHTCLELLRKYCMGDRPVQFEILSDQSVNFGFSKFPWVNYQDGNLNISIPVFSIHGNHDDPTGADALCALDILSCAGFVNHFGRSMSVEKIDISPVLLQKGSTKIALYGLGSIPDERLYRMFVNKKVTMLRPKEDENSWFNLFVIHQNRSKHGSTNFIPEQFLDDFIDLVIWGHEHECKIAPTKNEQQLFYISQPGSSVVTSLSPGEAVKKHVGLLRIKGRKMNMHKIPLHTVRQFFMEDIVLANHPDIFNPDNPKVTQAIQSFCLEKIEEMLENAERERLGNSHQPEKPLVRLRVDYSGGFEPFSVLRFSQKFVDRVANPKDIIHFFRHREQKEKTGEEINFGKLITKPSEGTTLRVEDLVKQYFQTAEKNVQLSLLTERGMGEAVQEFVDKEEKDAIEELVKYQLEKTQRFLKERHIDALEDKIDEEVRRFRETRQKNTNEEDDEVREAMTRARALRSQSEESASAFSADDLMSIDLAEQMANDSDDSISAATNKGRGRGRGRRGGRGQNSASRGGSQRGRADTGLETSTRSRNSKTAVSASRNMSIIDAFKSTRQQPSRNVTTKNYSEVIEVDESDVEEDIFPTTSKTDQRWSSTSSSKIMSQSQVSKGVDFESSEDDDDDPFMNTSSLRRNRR

Substance | binding [1] | binding [2] | binding [3] | binding [4] | binding [5]
GST-fused GRB2 C-terminal SH3 (cSH3) domain (from UniProt P62993 156-217) | binds | binds | – | – | –
GST-fused GRB2 N-terminal SH3 (nSH3) domain (from UniProt P62993 1-58) | – | – | binds | binds | –
GST-fused GRB2 SH2 domain (from UniProt P62993 60-152) | binds | binds | – | – | –
Strep-tagged GRB2 DF/AA mutant expressed in HEK293T cells (from UniProt P62993 1-217) | – | – | – | – | binds

— US20230366033A1, “METHODS FOR TREATING CANCERS WITH INHIBITORS TARGETING THE ROLE OF GRB2 IN DNA REPAIR” (Board of Regents, The University of Texas System, priority 2020, published 2023)
